{"source": "paper PMC7019889", "binders": {"B1": {"name": "endogenous USP29 in mouse brain (enzyme, UniProt Q9ES63 1-869)", "chain": "MAHLKINGLVQIRSTNRSKHTRASQWKEAVIEIVERKQKVNLVVSFKLEERRRVFQLGDNVTGVVVSGELGLYHLDLTLRDDTSLLIDKLSSADVEHLKSFLDSSTPCESQQPMEPMSSQDDLESSDPFCGEHQEAACGSLNTTPESGTPLSRKMPLSMSNTTGGQKRGEKQGRKRKTEPSSSSAEVNKDIPKENTPDQKKKSRRYYSRNRGGKAEKAVTLREQEKRSNWKLEPAFNSKSYGRANLDGTILPIATCSDDRDVSIFGLEIITHNGVQSLPDPYLNQLKREGFPNLGNTCYMNSILQSVFGIPTFAKDLLTQGIPWEKVSYDDLIMPLSQLLVLKDIRDVEIKGELLTSVKKSISTVADTFSGNEQNDAHEFLSLCLDQLKLNMEKVNAMWDTERRNTCAGSAGTKRFVCPVGANFEFELHSSIICEGCGEATIKTEVSNYLSIDLHHGTKTHPLSIQKSFDLFFTPEKIEHNCEKCKNKNSVLKYTLRRLPRVLIVHLKRYQVTTDLLPVKSEQPVEISKYLNISSHCHENRKLPFPLANTSPDVSQGMMPGIFNQSMLSKKVISESCDPMVLQVGSSVDAEIQSFQIMYEDEDASEEQQQRGLESGSMLEPELVKTENRILRQKTSLATDSMMGDGYSFLPMLCEPLSIQDPGLAEMGLQEVPENPEFKNYEKINIYGKSDGRTNTELSKLYQNHGSRIKGLFLPASLASVSSQEDPEKDLSRSPELQEDDPHSFAFGSDDSKDGEMGDDLQNYRLVSVVSHFGSSPNSGHYVSDVYDFQKQAWLLYSDVQVFESSDPSIQENRLNSGYIFFYMHNEIFEELLKKASECKVLSTSKEEKRDIDYFSTLLNGLTYILEEF"}}, "target": "T1, endogenous MYBBP1A in mouse brain (mouse (endogenous in C57BL mouse brain)) (UniProt Q7TPV4)", "T1 sequence": "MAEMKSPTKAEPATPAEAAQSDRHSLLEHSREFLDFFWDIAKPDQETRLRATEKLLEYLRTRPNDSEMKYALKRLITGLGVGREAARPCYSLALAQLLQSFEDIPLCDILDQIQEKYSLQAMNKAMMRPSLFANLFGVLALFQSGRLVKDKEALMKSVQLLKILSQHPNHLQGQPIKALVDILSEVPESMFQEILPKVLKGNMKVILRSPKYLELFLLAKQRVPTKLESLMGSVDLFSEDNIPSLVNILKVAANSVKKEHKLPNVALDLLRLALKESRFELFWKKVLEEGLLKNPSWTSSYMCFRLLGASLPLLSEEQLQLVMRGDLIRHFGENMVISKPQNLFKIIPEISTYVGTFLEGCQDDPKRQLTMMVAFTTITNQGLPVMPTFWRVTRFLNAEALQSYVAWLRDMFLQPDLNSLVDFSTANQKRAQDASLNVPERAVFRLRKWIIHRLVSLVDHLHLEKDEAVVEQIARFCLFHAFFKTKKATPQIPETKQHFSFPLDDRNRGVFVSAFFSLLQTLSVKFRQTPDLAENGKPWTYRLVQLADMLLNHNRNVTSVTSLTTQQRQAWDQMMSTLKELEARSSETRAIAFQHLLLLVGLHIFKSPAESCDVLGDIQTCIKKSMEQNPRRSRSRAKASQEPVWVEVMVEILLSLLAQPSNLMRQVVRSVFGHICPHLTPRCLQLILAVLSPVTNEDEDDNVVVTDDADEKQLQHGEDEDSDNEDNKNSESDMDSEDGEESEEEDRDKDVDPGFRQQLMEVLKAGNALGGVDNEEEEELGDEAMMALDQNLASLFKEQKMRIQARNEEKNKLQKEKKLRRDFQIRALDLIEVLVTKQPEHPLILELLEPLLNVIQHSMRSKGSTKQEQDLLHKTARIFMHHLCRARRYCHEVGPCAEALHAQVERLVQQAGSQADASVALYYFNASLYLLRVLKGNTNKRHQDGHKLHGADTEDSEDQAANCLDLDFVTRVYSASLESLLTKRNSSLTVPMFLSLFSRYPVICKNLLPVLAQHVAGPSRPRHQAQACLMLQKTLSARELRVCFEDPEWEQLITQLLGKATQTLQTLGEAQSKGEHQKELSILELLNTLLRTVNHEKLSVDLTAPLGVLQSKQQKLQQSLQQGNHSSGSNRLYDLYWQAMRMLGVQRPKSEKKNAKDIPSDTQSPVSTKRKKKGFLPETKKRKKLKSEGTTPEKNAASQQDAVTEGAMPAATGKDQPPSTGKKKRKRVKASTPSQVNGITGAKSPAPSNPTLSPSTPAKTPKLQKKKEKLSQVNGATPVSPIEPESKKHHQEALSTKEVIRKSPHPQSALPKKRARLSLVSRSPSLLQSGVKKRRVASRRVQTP", "assay": "co-IP; C57BL mouse brain (SN, STR, CTX, CB) homogenized in RIPA buffer; MYBBP1A immunoprecipitated, rabbit IgG as negative control; immunoblot", "note": "No constants are given. Whether binding was seen depends on the method and setting. In cells and extracts the contact can be indirect. Some binding calls cover weakened binding; strength is not graded here.", "data": [{"binder": "B1", "values": [{"measurement": "binding", "result": "binds"}]}]}
